Patent US20240317828A1, “T CELL ACTIVATING IMMUNOTHERAPEUTIC FOR TREATMENT OF MUCIN 1 PROTEIN EXPRESSING HUMAN CANCERS” (PDS BIOTECHNOLOGY CORPORATION, priority 2022, published 2024)
At least one peptide structure holds a part that was inferred or is arguable (an end, a ring closure or a residue). Where no end group is shown, it is not given here.

Test system: MUC1 antigen-specific T cells
Experiment: ELISPOT of MUC1 antigen-specific T cells in spleens of vaccinated HLA-A2 transgenic mice
Type: in vivo, HLA-A2 expressing transgenic mice (AAD mice)
Details: for immune response: FIG. 8
Experimental: As illustrated in FIG. 4 HLA-A2 specific CD8 T cell responses to formulations including peptide antigen SSEEDE-C1A (SEQ ID NO:18) and SSEEDE-C2A (SEQ ID NO:19) formulated with R-DOTAP nanoparticles and a micellar mixture with six lipidated peptide agonist antigens, pC3A: (SEQ ID NO:15), pV1A: (SEQ ID NO:2), pV2A: (SEQ ID NO:3), pC5A: (SEQ ID NO:4), pC6A: (SEQ ID NO:5), pP93L: (SEQ ID NO: 16) were evaluated. […] The efficacy of these vaccine formulations in generating T cell responses was measured by dosing HLA-A2 expressing transgenic mice (AAD mice) with two 0.1 ml injections of the vaccine delivered subcutaneously on day 0 and day 7. Negative control groups mice were vaccinated with MUC1 peptides formulated in sucrose buffer. Immune responses specific to vaccine formulation were measured in an ELISPOT assay by enumerating MUC1 antigen-specific T cells, in triplicate wells, in the spleens obtained from vaccinated mice. Each bar in the graph represents the mean SFU per 250,000 splenocytes for a group of vaccinated mice. Error bars represent mean±SEM for five mice in each group. For identifying MUC1-specific T cells, splenocytes were stimulated with peptide sequences C1A (SEQ ID NO:9: YLAIVYLIAL), C2A (SEQ ID NO:10), V1A (SEQ ID NO:13), V2A (SEQ ID NO:14:) C3A (SEQ ID NO:12) and p93L (SEQ ID NO:11)
As shown in FIG. 5 HLA-A2 specific CD8 T cell responses to formulations including peptide antigen SSEEDE-C1A (SEQ ID NO:9) and SSEEDE-C2A ([…]) formulated with R-DOTAP nanoparticles and a micellar mixture with six lipidated peptide agonist antigens, pC3A: (SEQ ID NO:15), pV1A: (SEQ ID NO:2), pV2A: (SEQ ID NO:3), pC5A: (SEQ ID NO:4), pC6A: (SEQ ID NO:5), pP93L: (SEQ ID NO:16) were assessed. […] The efficacy of these vaccine formulations in generating T cell responses was measured by dosing HLA-A2 expressing transgenic mice (AAD mice) with two 0.1 ml injections of the vaccine delivered subcutaneously on day 0 and day 7. Negative control groups mice were vaccinated with MUC1 peptides formulated in sucrose buffer. Immune responses specific to vaccine formulation were measured in an ELISPOT assay by enumerating MUC1 antigen-specific T cells, in triplicate wells, in the spleens obtained from vaccinated mice. Each bar in the graph represents the mean SFU per 250,000 splenocytes for a group of vaccinated mice. Error bars represent mean±SEM for five mice in each group. For identifying MUC1-specific T cells, splenocytes were stimulated with peptide sequences C1A (SEQ ID NO:9: YLAIVYLIAL), C2A (SEQ ID NO:10), V1A (SEQ ID NO:13), V2A (SEQ ID NO:14) C3A (SEQ ID NO:12) and p93L (SEQ ID NO:11).
Control peptide antigen formulations were prepared with 0.5 ml of Montanide plus CpG, or “NCI adjuvant” formulation consisting of 50 μg/ml GM-CSF, 20 μg/ml IL-12, 0.8 mg/ml HBV core (128-140) peptide in incomplete Freund's adjuvant. The efficacy of these vaccine formulations in generating T cell responses was measured by dosing HLA-A2 expressing transgenic mice (AAD mice) with two 0.1 ml injections of the vaccine delivered subcutaneously on day 0 and day 7. Control group mice were vaccinated with MUC1 peptides formulated in sucrose buffer alone. Immune responses specific to vaccine formulation were measured in an ELISPOT assay by enumerating MUC1 antigen-specific T cells, in triplicate wells, in the spleens obtained from vaccinated mice. Each data point in the graph represents the mean SFU per 250,000 splenocytes in vaccinated mice. […]

Sequence: YLIALAVCQV [C2A, YLIALAVCQV]
- C2A-specific T cell response (immunoactivity) (FIG. 2, peptide inserted into lipid bilayer of R-DOTAP nanoparticle, two 0.1 ml s.c. injections day 0 and 7, splenocytes stimulated with C2A): effective immunoactivity
- immune response (short peptides encapsulated (incorporated into the R-DOTAP bilayer)): did generate a significant response
- immune response (short peptides mixed with R-DOTAP): did not generate a significant response
- immune response (HLA-A2 specific CD8 T cell) (FIGS. 3 and 7, peptides inserted into R-DOTAP nanoparticle lipid bilayer, with micellar lipidated V1A/V2A, 3 mg R-DOTAP per ml): strong immune responses
- generation of immune responses (peptide included in antigen mixtures mixed/formulated with R-DOTAP nanoparticles (not inserted in bilayer)): ordinarily inactive
